Laboratory results as given in PMC12241364.
No constants are given. Whether binding was seen depends on the method and setting. In cells and extracts the contact can be indirect. For some of these results: Binding calls can cover weak binding; strength is not graded here.

Protein sequences, listed by entry. Tags and fused reporters are not part of them. Lines headed by an entry give the natural chain unless they say otherwise; changes in a name come on top.
UniProt Q0D2I5: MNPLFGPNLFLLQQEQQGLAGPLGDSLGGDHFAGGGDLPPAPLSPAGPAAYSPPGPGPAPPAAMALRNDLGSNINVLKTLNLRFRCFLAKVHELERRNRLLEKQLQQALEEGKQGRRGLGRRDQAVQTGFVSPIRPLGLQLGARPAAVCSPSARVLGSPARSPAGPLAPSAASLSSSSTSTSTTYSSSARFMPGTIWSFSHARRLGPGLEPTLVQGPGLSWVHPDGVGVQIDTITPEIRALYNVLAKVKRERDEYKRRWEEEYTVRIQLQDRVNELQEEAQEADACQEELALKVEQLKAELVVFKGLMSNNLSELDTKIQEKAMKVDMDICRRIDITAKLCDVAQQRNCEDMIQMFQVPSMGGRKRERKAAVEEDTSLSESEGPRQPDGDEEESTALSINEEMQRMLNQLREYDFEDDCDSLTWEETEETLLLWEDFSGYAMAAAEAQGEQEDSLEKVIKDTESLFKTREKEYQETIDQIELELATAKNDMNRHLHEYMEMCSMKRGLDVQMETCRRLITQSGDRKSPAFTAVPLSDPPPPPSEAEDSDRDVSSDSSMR
UniProt Q86VI3: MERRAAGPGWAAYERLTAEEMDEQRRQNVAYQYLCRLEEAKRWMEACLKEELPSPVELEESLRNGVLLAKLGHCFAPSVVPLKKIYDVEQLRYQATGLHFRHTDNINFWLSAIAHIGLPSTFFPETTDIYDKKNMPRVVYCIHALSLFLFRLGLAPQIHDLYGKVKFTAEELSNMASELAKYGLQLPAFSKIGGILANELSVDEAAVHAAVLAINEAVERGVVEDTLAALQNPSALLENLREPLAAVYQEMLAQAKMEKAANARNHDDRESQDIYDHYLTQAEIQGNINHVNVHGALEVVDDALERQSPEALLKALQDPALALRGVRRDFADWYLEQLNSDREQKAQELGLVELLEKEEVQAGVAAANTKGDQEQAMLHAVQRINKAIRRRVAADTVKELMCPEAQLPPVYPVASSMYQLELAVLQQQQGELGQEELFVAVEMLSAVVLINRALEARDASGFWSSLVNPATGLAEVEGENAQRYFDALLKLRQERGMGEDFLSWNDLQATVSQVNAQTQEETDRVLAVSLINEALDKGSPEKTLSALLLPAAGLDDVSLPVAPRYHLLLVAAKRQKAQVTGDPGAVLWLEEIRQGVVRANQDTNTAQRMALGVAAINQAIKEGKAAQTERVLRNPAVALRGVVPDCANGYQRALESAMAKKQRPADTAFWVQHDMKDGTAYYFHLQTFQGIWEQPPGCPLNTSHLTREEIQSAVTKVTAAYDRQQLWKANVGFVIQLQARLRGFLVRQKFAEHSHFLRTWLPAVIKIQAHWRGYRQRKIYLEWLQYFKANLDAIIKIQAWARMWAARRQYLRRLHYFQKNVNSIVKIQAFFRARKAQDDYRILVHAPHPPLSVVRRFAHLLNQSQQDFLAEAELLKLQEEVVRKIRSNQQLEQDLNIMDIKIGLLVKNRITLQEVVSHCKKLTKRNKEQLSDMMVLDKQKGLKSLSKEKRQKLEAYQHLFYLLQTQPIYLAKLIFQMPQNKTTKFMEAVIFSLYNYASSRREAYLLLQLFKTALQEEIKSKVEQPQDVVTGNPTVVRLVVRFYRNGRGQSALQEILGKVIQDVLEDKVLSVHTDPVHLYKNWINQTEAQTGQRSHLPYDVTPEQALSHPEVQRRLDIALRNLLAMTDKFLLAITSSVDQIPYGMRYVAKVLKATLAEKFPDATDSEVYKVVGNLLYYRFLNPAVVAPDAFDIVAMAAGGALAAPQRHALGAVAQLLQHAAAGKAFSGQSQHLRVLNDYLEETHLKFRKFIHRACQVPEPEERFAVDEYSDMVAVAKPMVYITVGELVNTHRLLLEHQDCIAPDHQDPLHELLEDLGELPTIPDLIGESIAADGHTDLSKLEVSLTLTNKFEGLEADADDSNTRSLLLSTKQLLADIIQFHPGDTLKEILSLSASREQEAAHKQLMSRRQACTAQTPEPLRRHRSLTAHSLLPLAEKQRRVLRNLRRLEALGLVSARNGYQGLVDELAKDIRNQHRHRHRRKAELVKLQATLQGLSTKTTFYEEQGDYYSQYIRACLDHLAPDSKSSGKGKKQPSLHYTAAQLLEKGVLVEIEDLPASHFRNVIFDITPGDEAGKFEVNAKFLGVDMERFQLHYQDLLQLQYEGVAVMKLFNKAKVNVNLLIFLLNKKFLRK

Columns and labels:
Assay in all cases: co-IP; full-length IFFO1 and its truncated mutants expressed in IFFO1-/- cells; IP and blot for IQGAP3
[1] = biological target: IFFO1 2B coiled-coil domain deletion mutant (UniProt Q0D2I5)
[2] = biological target: IFFO1 1B coiled-coil domain deletion mutant (UniProt Q0D2I5)
[3] = biological target: IFFO1 2A coiled-coil domain deletion mutant (UniProt Q0D2I5)
[4] = biological target: IFFO1 1A coiled-coil domain deletion mutant (UniProt Q0D2I5)

## IQGAP3 (IQ motif-containing GTPase-activating protein 3), endogenous (from UniProt Q86VI3 1-1631)
[1]
  binding: binds
[2]
  binding: binds
[3]
  binding: no binding
[4]
  binding: binds
